Test results published in article doi:10.1101/2024.02.16.579611.
These are yes or no findings as the source states them, for the method shown.

Sequences of proteins named here, by UniProt entry; tags and fusion partners are left off. A change or cut given only in a name is not applied to a line headed by its entry.
UniProt P07674: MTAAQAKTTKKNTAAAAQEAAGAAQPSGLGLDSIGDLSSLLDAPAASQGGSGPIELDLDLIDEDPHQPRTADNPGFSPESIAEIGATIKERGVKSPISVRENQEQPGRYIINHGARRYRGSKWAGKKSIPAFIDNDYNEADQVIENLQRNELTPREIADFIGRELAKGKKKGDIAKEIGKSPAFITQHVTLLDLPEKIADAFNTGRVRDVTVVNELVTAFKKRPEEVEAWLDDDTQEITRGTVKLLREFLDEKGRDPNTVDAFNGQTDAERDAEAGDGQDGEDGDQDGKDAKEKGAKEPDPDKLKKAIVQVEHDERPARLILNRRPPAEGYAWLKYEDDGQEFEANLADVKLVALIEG
UniProt P03052: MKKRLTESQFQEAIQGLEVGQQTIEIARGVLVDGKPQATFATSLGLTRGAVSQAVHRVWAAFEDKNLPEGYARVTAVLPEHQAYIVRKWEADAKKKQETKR

Experiments:
[1] = molecular target: KorB F249A, C-terminally His-tagged (plasmid RK2) (UniProt P07674); experiment: ITC
[2] = molecular target: KorB (wild type), C-terminally His-tagged (plasmid RK2) (UniProt P07674); experiment: ITC

binding [1] | binding [2] | Substance
no binding |  | KorA (wild type), C-terminally His-tagged (from UniProt P03052)
 | no binding | KorA Y84A, C-terminally His-tagged (from UniProt P03052)
